Reference: paper PMC6061166
Results are given in words; binding and its absence hold for the method and conditions named. Binding seen in cells or lysates may run through a third protein. Some entries that bind do so weakly or less than the wild type.

Amino acid sequences for entries named in this document (tags omitted). A change or cut given only in a name is not applied to a line headed by its entry.
UniProt P61169: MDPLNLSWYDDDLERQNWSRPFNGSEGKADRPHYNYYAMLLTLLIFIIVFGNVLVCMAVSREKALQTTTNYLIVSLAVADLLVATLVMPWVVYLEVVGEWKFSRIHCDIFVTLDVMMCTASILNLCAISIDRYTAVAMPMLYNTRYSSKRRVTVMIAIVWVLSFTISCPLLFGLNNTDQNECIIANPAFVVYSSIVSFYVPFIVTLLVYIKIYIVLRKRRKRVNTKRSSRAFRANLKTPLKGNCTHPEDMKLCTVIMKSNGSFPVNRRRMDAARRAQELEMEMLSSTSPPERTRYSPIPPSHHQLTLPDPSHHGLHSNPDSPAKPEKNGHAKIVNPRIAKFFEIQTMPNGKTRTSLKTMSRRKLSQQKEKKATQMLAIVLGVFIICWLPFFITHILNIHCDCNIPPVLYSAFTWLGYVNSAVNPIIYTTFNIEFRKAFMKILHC
UniProt P14416: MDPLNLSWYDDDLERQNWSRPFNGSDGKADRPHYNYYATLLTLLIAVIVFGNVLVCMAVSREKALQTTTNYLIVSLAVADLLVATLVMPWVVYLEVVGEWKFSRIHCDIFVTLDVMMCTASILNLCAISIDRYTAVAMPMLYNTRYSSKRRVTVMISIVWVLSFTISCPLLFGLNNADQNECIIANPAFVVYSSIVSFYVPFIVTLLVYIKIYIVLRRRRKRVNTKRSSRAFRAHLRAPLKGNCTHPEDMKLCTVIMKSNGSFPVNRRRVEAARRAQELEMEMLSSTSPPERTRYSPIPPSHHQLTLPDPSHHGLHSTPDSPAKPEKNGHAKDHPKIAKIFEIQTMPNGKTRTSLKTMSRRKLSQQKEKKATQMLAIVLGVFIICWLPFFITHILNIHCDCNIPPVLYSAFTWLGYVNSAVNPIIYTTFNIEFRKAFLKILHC

Key:
[1] = molecular target: dopamine D2 receptor, endogenous in rat striatum (rat (endogenous in Sprague-Dawley rat brain)) (UniProt P61169); test: proximity ligation; in situ PLA on free-floating formalin-fixed rat brain sections (30 um, Bregma 1.0 mm) with anti-D2R and anti-A2AR primary antibodies; rats after cocaine self-administration with CGS 21680, intra-accumbal vehicle or synthTM5 peptide; nucleus accumbens core and shell, caudate putamen
[2] = molecular target: dopamine D2 receptor, endogenous in rat striatum (rat (endogenous in Sprague-Dawley rat brain)) (UniProt P61169); test: proximity ligation; in situ PLA of A2AR-D2R on rat brain sections after microinjection of synthTM5 peptide (0.1 uM, 0.5 ul each side, 22 h and 20 min before the last session) into the nucleus accumbens; only the binder purified
[3] = molecular target: dopamine D2 receptor fused to Renilla luciferase (D2R^Rluc) (human) (UniProt P14416); test: FRET or BRET; BRET^1 competition in HEK293T cells co-expressing D2R^Rluc and A2AR^YFP; synthetic TM peptide added at rising concentrations for 2 h at 37 °C before reading; only the binder purified

| Molecule | binding [1] | binding [2] | binding [3] |
| --- | --- | --- | --- |
| adenosine A2A receptor, endogenous in rat striatum (from UniProt P30543 1-410) | binds |  |  |
| KKKMNYMVYYNFFAFVLLPLLLMLAIYLKKK [rat A2AR synthetic TM5 peptide (synthTM5)] |  | binds | binds |
